Source: PubChem BioAssay AID493014 (National Center for Advancing Translational Sciences (NCATS), 2011)
This is one part of the list. Further columns of the screen follow, without active or inactive calls. Most of these compounds were active or inconclusive in the main read-out, so they are no random draw. Potencies come from curve fits of mixed quality, noted in brackets.

Experiment: qHTS Assay to Find Inhibitors of Chronic Active B-Cell Receptor Signaling
Settings: ABC-DLBCL IkBa-CBG/CBR reporter, luminescence ratio (green luciferase fused to IkBa over red control in TMD8 lymphoma cells), 4 h
Outline: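 Compounds up to 46 uM were incubated four hours with TMD8 cells whose green CBG68 luciferase is fused to IkappaBalpha; red CBR luminescence normalised the signal, and concentration-effect curves were fitted to fusion, red and ratio data.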

[1] = measured here: CBR red luminescence, cell number
[2] = measured here: IkBa-CBG green luminescence

| SMILES | AC50 [1] | AC50 [2] |
| --- | --- | --- |
| CCN(CC)CCN1C(=O)c2ccccc2NC1c1ccc(N(C)C)cc1 (stereo not drawn) | 32.6 µM [falling, single point] | – |
| CCC(=O)N(CCC1(c2ccccc2OC)CCOC(C(C)C)C1)Cc1ccco1 (stereo not drawn) | 35.5 µM [falling, partial curve, poor fit] | – |
| CCOC(=O)c1c[nH]c2c(Cl)c(Cl)ccc2c1=O | 0.411 µM [rising, partial curve, poor fit] | – |
| CCn1cc(C(=O)Nc2ccccc2)c(=O)c2ccc(C)nc21 | 0.0891 µM [rising, full curve, poor fit] | – |
| O=C(c1ccc2c(c1)OCO2)C1CCCN(Cc2cn[nH]c2-c2cccc(F)c2)C1 (stereo not drawn) | 4.47 µM [falling, full curve] | – |
| O=C(c1cc(-c2ccccc2)on1)N1CCN(c2ccccc2)CC1 | 0.501 µM [falling, full curve, poor fit] | – |
| COC(=O)C1=C(C)OC(N)=C(C#N)C1c1c(C)nn(-c2ccccc2)c1Cl (stereo not drawn) | 0.651 µM [falling, partial curve, poor fit] | – |
| c1ccc(Oc2ccc(-n3cnnn3)cc2)cc1 | 18.4 µM [rising, single point] | – |
| C[C@H](CO)N1C[C@H](C)[C@@H](CN(C)C(=O)Nc2ccccc2)Oc2c(NC(=O)Nc3ccc(C(F)(F)F)cc3)cccc2C1=O | 20.6 µM [falling, single point] | – |
| CC(=O)NC1=NN(C(C)=O)C(C)(c2ccco2)S1 (stereo not drawn) | 35.5 µM [falling, single point] | – |
| Cc1ccc(NC(=S)NC2CCSc3ccccc32)cc1 (stereo not drawn) | 14.1 µM [falling, partial curve, poor fit] | – |
| Cc1cc(-c2ccc(S(=O)(=O)N(C)c3ccc(C)c(C)c3)s2)on1 | – | 12.6 µM [falling, partial curve, poor fit] |
| CNCCCOc1ccc(C(C)(C)c2ccccc2)cc1 | 13 µM [falling, partial curve, poor fit] | 16.4 µM [rising, partial curve, poor fit] |
| CCCCCOc1ccc(CSC2=NCCN2)cc1[N+](=O)[O-] | 29.1 µM [falling, single point] | – |
| COc1ccccc1/C=C1\SC(N2CCC(C)CC2)=NC1=O | 35.5 µM [falling, partial curve, poor fit] | – |
| COC(CN1C(=O)C(=O)/C(=C(/O)c2ccccc2)C1c1ccccn1)OC (stereo not drawn) | 1 µM [rising, full curve, poor fit] | – |
| COc1ccc(C(=O)N2CCNC(=O)C2)cc1S(=O)(=O)Nc1ccc(Br)cc1 | 23.1 µM [rising, partial curve] | 23.1 µM [falling, partial curve, poor fit] |
| CC(=O)N1CCn2c3c(c(=O)c4cc(C)ccc42)CCC31 (stereo not drawn) | 32.6 µM [falling, single point] | – |
| COc1ccc(NC(=S)c2ccc(N(C)C)cc2)cc1 | 18.4 µM [rising, single point] | – |
| COCCNC(=O)CSc1ccc(Cl)cc1 | 3.16 µM [rising, partial curve] | – |

For convenience, twelve of the compounds above:

| SMILES | AC50 [1] | AC50 [2] |
| --- | --- | --- |
| CCC(=O)N(CCC1(c2ccccc2OC)CCOC(C(C)C)C1)Cc1ccco1 (stereo not drawn) | 35.5 µM [falling, partial curve, poor fit] | – |
| CCOC(=O)c1c[nH]c2c(Cl)c(Cl)ccc2c1=O | 0.411 µM [rising, partial curve, poor fit] | – |
| CCn1cc(C(=O)Nc2ccccc2)c(=O)c2ccc(C)nc21 | 0.0891 µM [rising, full curve, poor fit] | – |
| O=C(c1ccc2c(c1)OCO2)C1CCCN(Cc2cn[nH]c2-c2cccc(F)c2)C1 (stereo not drawn) | 4.47 µM [falling, full curve] | – |
| O=C(c1cc(-c2ccccc2)on1)N1CCN(c2ccccc2)CC1 | 0.501 µM [falling, full curve, poor fit] | – |
| COC(=O)C1=C(C)OC(N)=C(C#N)C1c1c(C)nn(-c2ccccc2)c1Cl (stereo not drawn) | 0.651 µM [falling, partial curve, poor fit] | – |
| c1ccc(Oc2ccc(-n3cnnn3)cc2)cc1 | 18.4 µM [rising, single point] | – |
| C[C@H](CO)N1C[C@H](C)[C@@H](CN(C)C(=O)Nc2ccccc2)Oc2c(NC(=O)Nc3ccc(C(F)(F)F)cc3)cccc2C1=O | 20.6 µM [falling, single point] | – |
| CC(=O)NC1=NN(C(C)=O)C(C)(c2ccco2)S1 (stereo not drawn) | 35.5 µM [falling, single point] | – |
| Cc1ccc(NC(=S)NC2CCSc3ccccc32)cc1 (stereo not drawn) | 14.1 µM [falling, partial curve, poor fit] | – |
| Cc1cc(-c2ccc(S(=O)(=O)N(C)c3ccc(C)c(C)c3)s2)on1 | – | 12.6 µM [falling, partial curve, poor fit] |
| CNCCCOc1ccc(C(C)(C)c2ccccc2)cc1 | 13 µM [falling, partial curve, poor fit] | 16.4 µM [rising, partial curve, poor fit] |

(listing goes on)

| SMILES | AC50 [1] | AC50 [2] |
| --- | --- | --- |
| Cn1c(=O)c2c(nc(N/N=C/c3ccco3)n2C)n(C)c1=O | 8.91 µM [falling, partial curve] | – |
| CCN1CCN(c2oc(-c3ccco3)nc2C#N)CC1 | 31.6 µM [rising, single point] | – |
| CCOc1ccccc1NC(=O)Nc1cc(C(=O)O)ccc1C | 10 µM [rising, partial curve, poor fit] | – |
| CC12CC3(C)CC(C)(C1)CC(NC(=O)N1CCCC1)(C2)C3 | 4.11 µM [falling, single point] | – |
| COC(=O)c1c(-c2cccc(C)c2)csc1NC(=O)C1CCCO1 (stereo not drawn) | 2.82 µM [rising, partial curve, poor fit] | – |
| O=C(O)c1ccc(CSc2n[nH]c(-c3ccco3)n2)cc1 | 10 µM [falling, partial curve, poor fit] | – |
| COCC(=O)Nc1cc(C(=O)Nc2cccc(C)c2C)ccc1Cl | 14.6 µM [falling, partial curve, poor fit] | – |
| COCCNC(=O)c1c[nH]c2ccc(S(=O)(=O)N3CCc4ccccc43)cc2c1=O | 22.4 µM [falling, partial curve, poor fit] | – |
| Cc1ccc(CNC(=O)Cn2nnc3ccccc3c2=O)cc1 | 20 µM [falling, single point] | – |
| O=C(Nc1cccc(-c2csc(-c3ccccc3)n2)c1)c1cccs1 | 18.4 µM [falling, partial curve, poor fit] | – |
| Cc1ccc(NC(=O)COC(=O)C2=COCCO2)c([N+](=O)[O-])c1 | 22.4 µM [rising, single point] | – |
| N#Cc1cccc(NC(=O)COC(=O)c2ccccc2C(=O)c2ccc(Cl)c([N+](=O)[O-])c2)c1 | 7.31 µM [falling, partial curve] | 5.17 µM [rising, partial curve, poor fit] |
| O=C(CCS(=O)(=O)c1ccccc1)Nc1cccc2c1C(=O)NC2=O | 5.62 µM [rising, partial curve] | – |
| CCCCC(=O)Nc1ccc(C(=O)Nc2cc(C(F)(F)F)ccc2Cl)cc1 | 6.51 µM [rising, single point] | – |
| CCOC(=O)c1c(C)c(C(=O)NC(C)COC)c(C)n1C (stereo not drawn) | 29.1 µM [rising, single point] | – |
| Cc1ccccc1C(=O)OC1OC(=O)C(Cl)=C1Nc1ccccc1 (stereo not drawn) | 25.1 µM [falling, single point] | – |
| CCOc1ccc(-n2nc3cc(C)c(N)cc3n2)cc1 | 3.16 µM [rising, partial curve, poor fit] | – |
| CC(=O)N(Cc1ccccc1)c1nc(-c2ccccc2)cs1 | 8.91 µM [rising, partial curve] | – |
| COc1ccc(C(CNC(=O)COc2cccc(C(F)(F)F)c2)N2CCCC2)cc1 (stereo not drawn) | 7.31 µM [falling, full curve, poor fit] | – |
| CC(C)Cc1ccc(C(=O)NCc2ccc3c(c2)OCO3)o1 | 35.5 µM [falling, single point] | – |
